Read-outs that look alike come from different tables or passages of the source. No constants are given. Whether binding was seen depends on the method and setting. In cells and extracts the contact can be indirect. Some results given as binding are weak or reduced against the parent protein; the word gives no strength.
T1: Transforming growth factor-β (TGFβ)-activated kinase 1 (TAK1), endogenous (human (endogenous in AGS)) (UniProt O43318)
T1 sequence: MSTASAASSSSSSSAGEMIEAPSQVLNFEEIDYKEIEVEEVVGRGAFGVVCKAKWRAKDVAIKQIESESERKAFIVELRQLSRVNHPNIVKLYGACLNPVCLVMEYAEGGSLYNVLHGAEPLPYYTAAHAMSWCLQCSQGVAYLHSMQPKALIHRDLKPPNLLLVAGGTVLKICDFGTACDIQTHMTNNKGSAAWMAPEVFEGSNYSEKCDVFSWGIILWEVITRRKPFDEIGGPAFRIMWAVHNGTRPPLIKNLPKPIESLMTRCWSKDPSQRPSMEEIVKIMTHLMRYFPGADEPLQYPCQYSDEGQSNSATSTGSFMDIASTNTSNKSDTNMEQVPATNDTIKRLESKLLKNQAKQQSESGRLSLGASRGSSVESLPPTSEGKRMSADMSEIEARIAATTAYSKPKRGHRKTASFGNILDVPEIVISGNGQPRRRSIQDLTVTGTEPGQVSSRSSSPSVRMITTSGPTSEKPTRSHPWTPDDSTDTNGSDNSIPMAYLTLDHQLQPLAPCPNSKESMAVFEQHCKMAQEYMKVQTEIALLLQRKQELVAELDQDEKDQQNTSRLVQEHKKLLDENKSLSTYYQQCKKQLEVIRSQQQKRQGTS

Sequences of proteins named here, by UniProt entry; tags and fusion partners are left off.
UniProt P36873: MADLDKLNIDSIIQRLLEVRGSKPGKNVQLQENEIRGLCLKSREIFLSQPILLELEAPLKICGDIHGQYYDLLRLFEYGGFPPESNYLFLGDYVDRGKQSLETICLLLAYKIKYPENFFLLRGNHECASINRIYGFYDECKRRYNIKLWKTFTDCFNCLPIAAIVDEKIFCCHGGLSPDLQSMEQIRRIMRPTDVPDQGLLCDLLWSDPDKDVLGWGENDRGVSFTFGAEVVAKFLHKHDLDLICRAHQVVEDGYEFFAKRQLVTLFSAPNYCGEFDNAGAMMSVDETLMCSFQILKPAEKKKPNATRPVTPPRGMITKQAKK
UniProt P19474: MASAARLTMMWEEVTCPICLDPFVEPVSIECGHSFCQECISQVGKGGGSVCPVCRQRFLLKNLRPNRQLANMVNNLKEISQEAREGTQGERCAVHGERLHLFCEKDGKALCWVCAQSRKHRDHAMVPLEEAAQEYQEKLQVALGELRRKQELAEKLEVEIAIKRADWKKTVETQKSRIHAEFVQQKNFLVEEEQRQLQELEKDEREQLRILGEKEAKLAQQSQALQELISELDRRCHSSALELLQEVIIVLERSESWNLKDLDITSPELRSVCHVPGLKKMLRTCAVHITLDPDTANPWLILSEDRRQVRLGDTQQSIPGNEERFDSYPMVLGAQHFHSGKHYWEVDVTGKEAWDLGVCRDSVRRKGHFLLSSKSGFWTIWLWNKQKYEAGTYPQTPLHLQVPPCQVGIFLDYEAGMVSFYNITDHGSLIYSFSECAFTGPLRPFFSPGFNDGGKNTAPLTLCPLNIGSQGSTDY
UniProt P62136: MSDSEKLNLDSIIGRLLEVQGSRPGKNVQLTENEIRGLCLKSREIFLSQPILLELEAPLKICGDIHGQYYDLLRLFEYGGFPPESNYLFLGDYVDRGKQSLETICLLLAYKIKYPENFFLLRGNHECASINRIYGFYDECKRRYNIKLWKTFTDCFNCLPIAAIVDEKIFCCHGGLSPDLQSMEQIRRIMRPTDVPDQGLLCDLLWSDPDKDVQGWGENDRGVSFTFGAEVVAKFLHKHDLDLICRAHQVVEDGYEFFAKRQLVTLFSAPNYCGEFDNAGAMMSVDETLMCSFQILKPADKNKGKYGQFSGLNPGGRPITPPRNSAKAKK
UniProt P62140: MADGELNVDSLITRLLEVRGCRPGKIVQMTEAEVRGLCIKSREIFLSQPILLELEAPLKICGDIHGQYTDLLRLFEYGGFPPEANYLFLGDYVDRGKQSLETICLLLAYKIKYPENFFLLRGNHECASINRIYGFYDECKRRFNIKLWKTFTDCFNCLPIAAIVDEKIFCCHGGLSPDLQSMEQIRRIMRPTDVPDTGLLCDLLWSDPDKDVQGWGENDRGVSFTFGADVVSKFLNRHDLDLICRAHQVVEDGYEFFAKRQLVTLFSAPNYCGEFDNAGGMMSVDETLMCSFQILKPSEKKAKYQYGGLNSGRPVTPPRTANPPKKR
UniProt O00571: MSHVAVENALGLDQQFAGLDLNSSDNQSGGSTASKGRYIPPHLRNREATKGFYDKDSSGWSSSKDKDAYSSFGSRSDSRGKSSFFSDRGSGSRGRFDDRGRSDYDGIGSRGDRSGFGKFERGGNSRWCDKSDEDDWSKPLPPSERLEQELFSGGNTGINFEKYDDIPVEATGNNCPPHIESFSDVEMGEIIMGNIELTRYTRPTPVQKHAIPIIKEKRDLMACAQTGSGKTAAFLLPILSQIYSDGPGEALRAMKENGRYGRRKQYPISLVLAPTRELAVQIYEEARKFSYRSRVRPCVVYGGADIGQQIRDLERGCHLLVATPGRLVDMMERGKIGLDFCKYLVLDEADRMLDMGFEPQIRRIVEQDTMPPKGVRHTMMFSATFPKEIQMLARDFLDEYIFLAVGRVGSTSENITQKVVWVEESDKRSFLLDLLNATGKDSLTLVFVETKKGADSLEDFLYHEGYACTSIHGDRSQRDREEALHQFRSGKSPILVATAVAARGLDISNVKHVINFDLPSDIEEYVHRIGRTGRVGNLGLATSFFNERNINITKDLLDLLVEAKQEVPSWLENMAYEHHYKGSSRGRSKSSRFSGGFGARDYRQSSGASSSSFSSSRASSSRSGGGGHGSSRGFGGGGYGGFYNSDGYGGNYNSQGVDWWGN
UniProt Q13263: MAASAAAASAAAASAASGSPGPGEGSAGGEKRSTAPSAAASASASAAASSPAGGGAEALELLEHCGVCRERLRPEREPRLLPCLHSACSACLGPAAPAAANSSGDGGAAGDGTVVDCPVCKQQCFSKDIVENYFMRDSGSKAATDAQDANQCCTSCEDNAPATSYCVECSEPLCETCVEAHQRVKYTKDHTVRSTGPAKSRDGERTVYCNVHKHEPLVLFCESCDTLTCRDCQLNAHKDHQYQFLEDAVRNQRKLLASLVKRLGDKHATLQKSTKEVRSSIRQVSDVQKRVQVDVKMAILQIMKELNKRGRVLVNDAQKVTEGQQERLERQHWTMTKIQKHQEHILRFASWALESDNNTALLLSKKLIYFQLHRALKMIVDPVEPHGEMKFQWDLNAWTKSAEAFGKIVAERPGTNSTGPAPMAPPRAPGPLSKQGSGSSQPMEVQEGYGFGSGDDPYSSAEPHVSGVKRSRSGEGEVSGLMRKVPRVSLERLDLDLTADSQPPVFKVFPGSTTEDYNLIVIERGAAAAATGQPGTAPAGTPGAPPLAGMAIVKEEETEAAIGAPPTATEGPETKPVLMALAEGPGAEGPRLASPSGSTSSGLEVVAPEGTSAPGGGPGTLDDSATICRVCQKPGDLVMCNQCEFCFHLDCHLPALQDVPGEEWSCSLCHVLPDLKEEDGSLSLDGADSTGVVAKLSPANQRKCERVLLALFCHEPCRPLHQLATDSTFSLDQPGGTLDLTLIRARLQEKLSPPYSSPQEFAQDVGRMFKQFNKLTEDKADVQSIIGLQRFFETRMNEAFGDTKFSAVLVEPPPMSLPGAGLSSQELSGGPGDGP

T2: TAK1 overexpressed from pCMV-TAK1 (UniProt O43318)
T2 sequence: T1 sequence

T3: TAK1-binding protein TAB2 (human (endogenous in AGS)) (UniProt Q9NYJ8)
T3 sequence: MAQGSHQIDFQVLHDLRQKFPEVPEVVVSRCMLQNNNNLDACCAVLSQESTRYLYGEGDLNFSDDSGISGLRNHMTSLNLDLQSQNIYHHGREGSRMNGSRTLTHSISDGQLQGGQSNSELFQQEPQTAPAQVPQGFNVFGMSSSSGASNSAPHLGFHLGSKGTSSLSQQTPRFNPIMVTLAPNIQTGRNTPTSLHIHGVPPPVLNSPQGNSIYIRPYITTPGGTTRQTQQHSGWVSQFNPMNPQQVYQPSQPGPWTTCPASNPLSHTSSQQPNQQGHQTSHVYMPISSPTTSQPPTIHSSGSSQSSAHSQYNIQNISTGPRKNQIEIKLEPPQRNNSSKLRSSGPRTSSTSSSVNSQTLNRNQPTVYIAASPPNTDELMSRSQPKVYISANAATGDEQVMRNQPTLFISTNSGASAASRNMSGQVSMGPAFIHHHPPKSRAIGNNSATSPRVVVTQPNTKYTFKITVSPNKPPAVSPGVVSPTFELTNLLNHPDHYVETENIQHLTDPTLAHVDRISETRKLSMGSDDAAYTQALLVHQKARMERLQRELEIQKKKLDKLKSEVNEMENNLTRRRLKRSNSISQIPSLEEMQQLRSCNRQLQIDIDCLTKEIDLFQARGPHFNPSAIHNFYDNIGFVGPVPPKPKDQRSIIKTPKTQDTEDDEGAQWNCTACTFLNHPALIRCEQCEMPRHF

T4: TAK1-binding protein TAB3 (human (endogenous in AGS)) (UniProt Q8N5C8)
T4 sequence: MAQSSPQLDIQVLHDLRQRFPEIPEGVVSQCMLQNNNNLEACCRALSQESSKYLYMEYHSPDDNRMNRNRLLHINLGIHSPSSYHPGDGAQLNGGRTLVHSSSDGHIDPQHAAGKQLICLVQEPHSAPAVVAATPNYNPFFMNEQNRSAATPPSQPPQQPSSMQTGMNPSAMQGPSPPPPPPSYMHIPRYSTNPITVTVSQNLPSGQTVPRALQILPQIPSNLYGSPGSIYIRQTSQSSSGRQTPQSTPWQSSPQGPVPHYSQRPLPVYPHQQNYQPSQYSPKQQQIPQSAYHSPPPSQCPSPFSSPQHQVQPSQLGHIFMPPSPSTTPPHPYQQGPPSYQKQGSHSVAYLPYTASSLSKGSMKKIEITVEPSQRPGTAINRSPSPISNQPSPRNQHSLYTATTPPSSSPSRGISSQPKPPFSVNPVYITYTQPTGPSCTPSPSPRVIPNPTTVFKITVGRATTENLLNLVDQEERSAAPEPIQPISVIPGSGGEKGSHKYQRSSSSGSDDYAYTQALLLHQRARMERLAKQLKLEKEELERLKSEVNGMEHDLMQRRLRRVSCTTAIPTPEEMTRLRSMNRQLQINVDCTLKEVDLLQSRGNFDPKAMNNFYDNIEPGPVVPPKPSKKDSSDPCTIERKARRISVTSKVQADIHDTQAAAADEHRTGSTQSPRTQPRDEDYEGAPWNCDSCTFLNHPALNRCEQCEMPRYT

B1: TAK1-binding protein TAB1, endogenous (protein, UniProt Q15750 1-504)
chain: MAAQRRSLLQSEQQPSWTDDLPLCHLSGVGSASNRSYSADGKGTESHPPEDSWLKFRSENNCFLYGVFNGYDGNRVTNFVAQRLSAELLLGQLNAEHAEADVRRVLLQAFDVVERSFLESIDDALAEKASLQSQLPEGVPQHQLPPQYQKILERLKTLEREISGGAMAVVAVLLNNKLYVANVGTNRALLCKSTVDGLQVTQLNVDHTTENEDELFRLSQLGLDAGKIKQVGIICGQESTRRIGDYKVKYGYTDIDLLSAAKSKPIIAEPEIHGAQPLDGVTGFLVLMSEGLYKALEAAHGPGQANQEIAAMIDTEFAKQTSLDAVAQAVVDRVKRIHSDTFASGGERARFCPRHEDMTLLVRNFGYPLGEMSQPTPSPAPAAGGRVYPVSVPYSSAQSTSKTSVTLSLVMPSQGQMVNGAHSASTLDEATPTLTNQSPTLTLQSTNTHTQSSSSSSDGGLFRSRPAHSLPPGEDGRVEPYVDFAEFYRLWSVDHGEQSVVTAP
B2: TAK1-binding protein TAB2 (protein, UniProt Q9NYJ8 1-693)
chain: T3 sequence
B3: TAK1-binding protein TAB3 (protein, UniProt Q8N5C8 1-712)
chain: T4 sequence
B4: Transforming growth factor-β (TGFβ)-activated kinase 1 (TAK1), endogenous (enzyme, UniProt O43318 1-606)
chain: T1 sequence
B5: CDC37 (protein, UniProt Q16543 1-378)
chain: MVDYSVWDHIEVSDDEDETHPNIDTASLFRWRHQARVERMEQFQKEKEELDRGCRECKRKVAECQRKLKELEVAEGGKAELERLQAEAQQLRKEERSWEQKLEEMRKKEKSMPWNVDTLSKDGFSKSMVNTKPEKTEEDSEEVREQKHKTFVEKYEKQIKHFGMLRRWDDSQKYLSDNVHLVCEETANYLVIWCIDLEVEEKCALMEQVAHQTIVMQFILELAKSLKVDPRACFRQFFTKIKTADRQYMEGFNDELEAFKERVRGRAKLRIEKAMKEYEEEERKKRLGPGGLDPVEVYESLPEELQKCFDVKDVQMLQDAISKMDPTDAKYHMQRCIDSGLWVPNSKASEAKEGEEAGPGDPLLEAVPKTGDEKDVSV

Legend:
[1] = molecular target: T1, Transforming growth factor-β (TGFβ)-activated kinase 1 (TAK1), endogenous (human (endogenous in AGS)); experiment: co-IP
[2] = molecular target: T2, TAK1 overexpressed from pCMV-TAK1; experiment: co-IP; TAK1 overexpressed in AGS cells, lysate incubated with TAK1 antibody, isotype control antibody or no antibody, immunoblot (Figure 4A)
[3] = molecular target: T1, Transforming growth factor-β (TGFβ)-activated kinase 1 (TAK1), endogenous (human (endogenous in AGS)); experiment: co-IP; remark: listed apart in the source
[4] = molecular target: T3, TAK1-binding protein TAB2 (human (endogenous in AGS)); experiment: co-IP
[5] = molecular target: T4, TAK1-binding protein TAB3 (human (endogenous in AGS)); experiment: co-IP

Molecule	binding [1]	binding [2]	binding [3]	other results
PPP1CC, catalytic subunit of serine/threonine-protein phosphatase 1 (PP1) (from UniProt P36873 1-323) (enzyme)	binds	–	–	–
Tripartite motif (TRIM)21 (from UniProt P19474 1-475)	binds	binds	–	–
PPP1CA, catalytic subunit of serine/threonine-protein phosphatase 1 (PP1) (from UniProt P62136 1-330) (enzyme)	binds	binds	–	–
PPP1CB, catalytic subunit of serine/threonine-protein phosphatase 1 (PP1) (from UniProt P62140 1-327) (enzyme)	binds	–	–	–
Asp-Glu-Ala-Asp (DEAD)-box helicase DDX3 (from UniProt O00571 1-662) (enzyme)	binds	binds	–	–
Tripartite motif 28 (TRIM28) (from UniProt Q13263 1-835)	binds	binds	–	–
B1	–	–	binds	–
B2	–	–	binds	–
B3	–	–	binds	–
B4	–	–	–	binding [4]: binds; binding [5]: binds
B5	–	binds	binds	–
